Source: article PMC5855799

Amino acid sequences for entries named in this document (tags omitted). Residues count along the entry.
UniProt P05787: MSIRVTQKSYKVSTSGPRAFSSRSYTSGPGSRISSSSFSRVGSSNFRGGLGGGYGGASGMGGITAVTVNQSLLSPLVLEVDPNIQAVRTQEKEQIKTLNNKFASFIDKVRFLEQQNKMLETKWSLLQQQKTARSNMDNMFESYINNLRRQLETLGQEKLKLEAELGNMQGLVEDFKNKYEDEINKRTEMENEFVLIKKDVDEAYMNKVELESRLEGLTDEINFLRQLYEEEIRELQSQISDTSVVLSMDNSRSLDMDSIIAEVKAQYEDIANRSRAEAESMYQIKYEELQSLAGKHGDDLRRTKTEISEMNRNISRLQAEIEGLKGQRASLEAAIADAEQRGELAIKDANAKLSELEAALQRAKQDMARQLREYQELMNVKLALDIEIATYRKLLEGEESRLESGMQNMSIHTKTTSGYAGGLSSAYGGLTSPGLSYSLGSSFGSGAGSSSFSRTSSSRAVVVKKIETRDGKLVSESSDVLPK
UniProt P02751, residues 32-2477: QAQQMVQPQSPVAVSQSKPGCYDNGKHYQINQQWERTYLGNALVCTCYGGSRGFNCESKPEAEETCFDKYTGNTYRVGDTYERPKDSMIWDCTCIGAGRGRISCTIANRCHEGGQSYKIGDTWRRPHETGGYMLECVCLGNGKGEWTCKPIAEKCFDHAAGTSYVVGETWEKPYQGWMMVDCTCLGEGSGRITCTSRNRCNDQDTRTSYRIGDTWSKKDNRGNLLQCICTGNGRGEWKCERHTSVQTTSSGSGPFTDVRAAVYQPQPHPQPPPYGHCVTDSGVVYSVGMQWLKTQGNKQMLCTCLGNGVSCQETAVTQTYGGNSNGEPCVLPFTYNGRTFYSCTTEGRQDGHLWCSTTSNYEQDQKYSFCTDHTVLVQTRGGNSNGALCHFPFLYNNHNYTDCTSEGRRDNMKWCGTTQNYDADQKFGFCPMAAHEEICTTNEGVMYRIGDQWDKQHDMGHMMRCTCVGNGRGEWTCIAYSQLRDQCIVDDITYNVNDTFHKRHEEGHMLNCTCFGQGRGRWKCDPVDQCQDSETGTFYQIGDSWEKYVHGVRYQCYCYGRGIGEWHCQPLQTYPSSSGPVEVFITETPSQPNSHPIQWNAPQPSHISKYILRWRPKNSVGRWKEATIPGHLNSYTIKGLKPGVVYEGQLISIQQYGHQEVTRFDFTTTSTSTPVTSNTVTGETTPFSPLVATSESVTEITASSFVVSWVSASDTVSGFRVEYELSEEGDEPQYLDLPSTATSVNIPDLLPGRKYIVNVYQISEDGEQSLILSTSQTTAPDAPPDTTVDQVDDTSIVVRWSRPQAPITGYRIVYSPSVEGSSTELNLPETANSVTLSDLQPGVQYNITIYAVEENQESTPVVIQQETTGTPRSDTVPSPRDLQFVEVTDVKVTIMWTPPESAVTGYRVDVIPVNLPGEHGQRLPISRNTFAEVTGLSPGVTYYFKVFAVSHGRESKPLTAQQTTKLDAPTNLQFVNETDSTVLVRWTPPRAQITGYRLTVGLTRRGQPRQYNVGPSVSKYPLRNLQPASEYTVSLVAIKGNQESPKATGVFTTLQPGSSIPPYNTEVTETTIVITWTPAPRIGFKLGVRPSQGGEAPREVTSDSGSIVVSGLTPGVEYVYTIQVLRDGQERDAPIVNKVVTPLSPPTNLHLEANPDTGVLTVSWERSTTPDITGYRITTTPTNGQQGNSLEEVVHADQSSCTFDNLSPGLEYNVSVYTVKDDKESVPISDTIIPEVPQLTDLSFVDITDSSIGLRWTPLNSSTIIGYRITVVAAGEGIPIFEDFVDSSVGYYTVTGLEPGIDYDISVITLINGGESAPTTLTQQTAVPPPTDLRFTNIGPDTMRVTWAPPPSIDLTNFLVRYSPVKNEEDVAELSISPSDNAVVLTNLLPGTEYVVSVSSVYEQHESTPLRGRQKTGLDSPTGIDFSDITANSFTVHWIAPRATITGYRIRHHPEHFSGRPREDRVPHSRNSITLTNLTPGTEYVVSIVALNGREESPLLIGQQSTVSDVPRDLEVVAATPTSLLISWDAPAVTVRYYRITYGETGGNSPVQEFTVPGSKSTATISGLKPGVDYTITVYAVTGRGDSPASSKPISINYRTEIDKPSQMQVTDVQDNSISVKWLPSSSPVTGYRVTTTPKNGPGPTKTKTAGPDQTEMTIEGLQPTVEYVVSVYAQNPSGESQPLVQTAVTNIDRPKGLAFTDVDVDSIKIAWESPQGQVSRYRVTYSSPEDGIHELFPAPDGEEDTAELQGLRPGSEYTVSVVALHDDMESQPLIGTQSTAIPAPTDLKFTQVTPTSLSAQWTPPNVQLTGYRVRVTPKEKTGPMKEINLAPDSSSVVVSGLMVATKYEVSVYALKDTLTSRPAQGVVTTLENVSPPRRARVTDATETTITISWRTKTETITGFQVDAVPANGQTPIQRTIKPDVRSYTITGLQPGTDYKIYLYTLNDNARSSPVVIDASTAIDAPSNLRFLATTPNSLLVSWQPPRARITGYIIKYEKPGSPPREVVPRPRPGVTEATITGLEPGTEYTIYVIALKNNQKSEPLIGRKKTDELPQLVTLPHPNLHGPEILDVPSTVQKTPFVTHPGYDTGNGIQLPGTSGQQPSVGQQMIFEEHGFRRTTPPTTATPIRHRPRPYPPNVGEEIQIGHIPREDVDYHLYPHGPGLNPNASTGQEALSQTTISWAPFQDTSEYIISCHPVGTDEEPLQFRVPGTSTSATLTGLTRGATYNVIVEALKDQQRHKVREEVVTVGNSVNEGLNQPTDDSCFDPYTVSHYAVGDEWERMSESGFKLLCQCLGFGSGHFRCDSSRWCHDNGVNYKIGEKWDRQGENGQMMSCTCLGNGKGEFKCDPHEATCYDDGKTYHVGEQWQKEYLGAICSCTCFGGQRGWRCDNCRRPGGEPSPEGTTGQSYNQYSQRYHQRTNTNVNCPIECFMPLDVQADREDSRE
UniProt O60437: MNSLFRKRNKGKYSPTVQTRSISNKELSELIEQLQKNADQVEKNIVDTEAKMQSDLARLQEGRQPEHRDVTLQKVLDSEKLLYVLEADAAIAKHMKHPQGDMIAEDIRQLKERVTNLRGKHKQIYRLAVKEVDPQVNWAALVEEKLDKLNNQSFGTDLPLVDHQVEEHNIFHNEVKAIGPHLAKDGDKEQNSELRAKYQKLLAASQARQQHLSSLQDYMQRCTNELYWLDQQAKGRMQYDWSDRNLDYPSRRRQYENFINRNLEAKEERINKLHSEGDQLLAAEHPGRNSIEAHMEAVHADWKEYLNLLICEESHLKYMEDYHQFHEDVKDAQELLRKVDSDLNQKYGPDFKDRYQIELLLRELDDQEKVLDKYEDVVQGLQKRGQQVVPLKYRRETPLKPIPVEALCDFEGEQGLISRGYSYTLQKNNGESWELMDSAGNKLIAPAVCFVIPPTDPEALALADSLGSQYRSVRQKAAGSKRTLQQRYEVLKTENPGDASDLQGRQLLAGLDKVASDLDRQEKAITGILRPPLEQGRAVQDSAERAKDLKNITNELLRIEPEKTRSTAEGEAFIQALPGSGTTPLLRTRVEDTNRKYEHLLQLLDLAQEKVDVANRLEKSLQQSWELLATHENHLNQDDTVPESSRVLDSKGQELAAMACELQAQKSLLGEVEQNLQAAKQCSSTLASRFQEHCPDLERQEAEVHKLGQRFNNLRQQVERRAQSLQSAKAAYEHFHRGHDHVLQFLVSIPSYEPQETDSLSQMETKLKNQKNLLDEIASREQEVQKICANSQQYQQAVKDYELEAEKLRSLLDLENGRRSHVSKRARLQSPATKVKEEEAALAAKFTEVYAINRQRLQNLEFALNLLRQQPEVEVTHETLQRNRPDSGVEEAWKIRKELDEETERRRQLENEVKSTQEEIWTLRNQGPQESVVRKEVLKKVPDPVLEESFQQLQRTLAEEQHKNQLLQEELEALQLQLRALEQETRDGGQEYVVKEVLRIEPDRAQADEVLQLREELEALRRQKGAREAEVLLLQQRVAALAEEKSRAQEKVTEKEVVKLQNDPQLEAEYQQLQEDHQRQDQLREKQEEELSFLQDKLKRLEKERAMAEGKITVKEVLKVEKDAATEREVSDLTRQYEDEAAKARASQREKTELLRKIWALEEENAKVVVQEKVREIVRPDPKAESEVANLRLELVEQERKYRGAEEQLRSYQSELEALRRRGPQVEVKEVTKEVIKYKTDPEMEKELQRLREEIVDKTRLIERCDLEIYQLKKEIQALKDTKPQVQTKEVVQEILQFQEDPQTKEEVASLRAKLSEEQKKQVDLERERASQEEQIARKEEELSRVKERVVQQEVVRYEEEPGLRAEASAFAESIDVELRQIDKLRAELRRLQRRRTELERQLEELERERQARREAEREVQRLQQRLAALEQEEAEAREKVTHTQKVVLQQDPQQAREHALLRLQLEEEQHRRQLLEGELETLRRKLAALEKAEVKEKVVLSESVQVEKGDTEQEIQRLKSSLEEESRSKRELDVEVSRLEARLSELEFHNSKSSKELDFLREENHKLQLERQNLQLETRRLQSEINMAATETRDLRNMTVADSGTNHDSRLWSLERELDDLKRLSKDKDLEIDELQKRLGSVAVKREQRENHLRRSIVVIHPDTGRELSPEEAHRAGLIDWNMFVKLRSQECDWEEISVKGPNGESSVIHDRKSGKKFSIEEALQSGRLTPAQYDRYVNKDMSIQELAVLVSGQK

Target: Keratin-8 (human (endogenous in ACT1)) (UniProt P05787)
Experiment: affinity purification with mass spectrometry; ACT1 whole-cell lysate probed with anti-KRT8 antibody covalently bonded to magnetic beads; eluate separated by PAGE, in-gel tryptic digestion, HPLC/tandem mass spectrometry

Substance | binding
fibronectin (from UniProt P02751 32-2477) | binds
periplakin (from UniProt O60437 1-1756) | binds

Results are given in words; binding and its absence hold for the method and conditions named. In cells and extracts the contact can be indirect. These calls come from enrichment with a bait or labelling near it, and not all partners need be listed.
